The results in this text go back to paper PMC11045787, “Disordered clock protein interactions and charge blocks turn an hourglass into a persistent circadian oscillator” (Nature Communications, 2024).

Numbering of substitutions follows the chain as printed. These are yes or no findings as the source states them, for the method shown. Binding seen in cells or lysates may run through a third protein. Binding can be weak; no strength is given. Tags and fused reporters may be left off the sequences shown.

The target of experiment [1] is T1, FRQ^VHF (wild-type FREQUENCY with V5-10-His-3-Flag tag) (N. crassa) (UniProt P19970).
T1 sequence: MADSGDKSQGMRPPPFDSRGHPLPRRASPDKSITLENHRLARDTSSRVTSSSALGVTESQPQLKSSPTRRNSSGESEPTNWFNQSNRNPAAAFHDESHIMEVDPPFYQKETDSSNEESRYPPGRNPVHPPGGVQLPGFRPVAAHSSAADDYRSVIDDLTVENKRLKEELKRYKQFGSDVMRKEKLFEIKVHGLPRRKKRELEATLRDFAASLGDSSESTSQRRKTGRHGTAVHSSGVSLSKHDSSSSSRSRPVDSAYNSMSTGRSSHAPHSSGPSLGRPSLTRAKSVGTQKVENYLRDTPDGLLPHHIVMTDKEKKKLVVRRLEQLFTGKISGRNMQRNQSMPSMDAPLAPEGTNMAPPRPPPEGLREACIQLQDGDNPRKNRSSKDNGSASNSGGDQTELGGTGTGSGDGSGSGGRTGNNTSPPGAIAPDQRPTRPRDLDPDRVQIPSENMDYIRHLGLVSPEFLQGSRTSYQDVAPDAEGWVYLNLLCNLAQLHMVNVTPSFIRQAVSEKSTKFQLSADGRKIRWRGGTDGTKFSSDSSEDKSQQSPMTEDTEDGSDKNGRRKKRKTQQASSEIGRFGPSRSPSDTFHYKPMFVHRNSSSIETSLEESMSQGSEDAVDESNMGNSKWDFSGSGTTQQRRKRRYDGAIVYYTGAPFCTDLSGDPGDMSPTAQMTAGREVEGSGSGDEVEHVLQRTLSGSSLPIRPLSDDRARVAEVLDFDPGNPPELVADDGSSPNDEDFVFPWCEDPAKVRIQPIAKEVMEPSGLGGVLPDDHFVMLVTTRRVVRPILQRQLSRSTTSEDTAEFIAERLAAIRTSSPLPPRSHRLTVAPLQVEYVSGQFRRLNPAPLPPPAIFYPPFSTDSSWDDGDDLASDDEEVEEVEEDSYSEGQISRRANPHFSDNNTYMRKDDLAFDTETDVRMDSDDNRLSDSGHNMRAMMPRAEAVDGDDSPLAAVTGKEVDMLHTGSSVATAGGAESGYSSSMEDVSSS
Nature of the experiment: co-IP; co-immunoprecipitation on VHF-tagged FRQ from lysates of N. crassa strains carrying short-ck1a^HA; overnight at 4 °C, 50 mM HEPES pH 7.4, 137 mM NaCl, 10% glycerol, 0.4% NP-40 alternative; blots with anti-FRH and anti-HA.

In experiment [2] the target is T2, FRQ^KKK/AAA (KKK315AAA, VHF-tagged) (N. crassa) (UniProt P19970).
T2 sequence: T1 sequence with K315A, K316A, K317A
Described as above.

In the case of “CASEIN KINASE 1a fused to an HA epitope tag (short-ck1a^HA) (N. crassa) (enzyme)”, the binding result in experiment [1] and in experiment [2] was “binds” each time.
